Reference: patent US10941139B2 (priority 2015, dated 2021)
Values joined by “and” are separate entries in the source; they are usually repeats but may differ in a detail not shown here. Equal entries are not always repeated.

Assay: general procedure: solution-phase peptide synthesis; HATU/HOAt/DIEA; EDC/HOBt
Details: for cyclisation yield: cyclisation step
[1] = late stage modification step, run 1

Substance	step yield (late stage modification step)	also measured
2,5-dioxopyrrolidin-1-yl (9S,12S)-1-(4-((2R,3R)-3-((S)-1-((3S,7S,10R,16S,E)-10-(3-chloro-4-methoxybenzyl)-6,6,7-trimethyl-3-neopentyl-2,5,9,12-tetraoxo-1-oxa-4,8,11-triazacyclo-hexadec-13-en-16-yl)ethyl)oxiran-2-yl)phenyl)-12-isopropyl-9-methyl-3,8,11,14-tetraoxo-2-oxa-4,7,10,13-tetraaza	72%	
3-((1-(4-((2R,3R)-3-((S)-1-((3S,7S,10R,16S, E)-10-(3-chloro-4-methoxybenzyl)-6,6,7-trimethyl-3-neopentyl-2,5,9,12-tetraoxo-1-oxa-4,8,11-triazacyclohexadec-13-en-16-yl)ethyl)oxiran-2-yl)benzyl)-1H-1,2,3-triazol-4-yl)methoxy)propanoic Acid	35%	
4-((2R,3R)-3-((S)-1-((3S,7S,10R,16S,E)-10-(3-chloro-4-methoxybenzyl)-6,6,7-trimethyl-3-neopentyl-2,5,9,12-tetraoxo-1-oxa-4,8,11-triazacyclohexadec-13-en-16-yl)ethyl)oxiran-2-yl)benzyl (4-nitrophenyl) carbonate	94%	
(2E,5S,6R,7E)-5-(((S)-2-(3-((R)-2-amino-3-(3-chloro-4-methoxyphenyl)-propanamido)-2,2-dimethylpropanamido)-4,4-dimethylpentanoyl)oxy)-8-(4-(hydroxymethyl)-phenyl)-6-methylocta-2,7-dienoic acid	82%	
(3S,7S,10R,16S, E)-10-(3-chloro-4-methoxybenzyl)-16-((R)-1-((4-methoxy-benzyl)oxy)propan-2-yl)-6,6,7-trimethyl-3-neopentyl-1-oxa-4,8,11-triazacyclohexadec-13-ene-2,5,9,12-tetraone		cyclisation yield (run 1): 61% and 37%
(3S,7S,10R,16S,E)-10-(3-chloro-4-methoxybenzyl)-6,6,7-trimethyl-3-neopentyl-16-((S)-1-((2R,3R)-3-(4-(((triisopropylsilyl)oxy)methyl)phenyl)oxiran-2-yl)ethyl)-1-oxa-4,8,11-triazacyclohexadec-13-ene-2,5,9,12-tetraone	30%	
(3S,7S,10R,16S,E)-10-(3-chloro-4-methoxybenzyl)-16-((R)-1-hydroxypropan-2-yl)-6,6,7-trimethyl-3-neopentyl-1-oxa-4,8,11-triazacyclohexadec-13-ene-2,5,9,12-tetraone	67%	
(3S,10R,16S, E)-10-(3-chloro-4-methoxybenzyl)-16-((R,E)-4-(4-(hydroxymethyl)-phenyl)but-3-en-2-yl)-6,6,7-trimethyl-3-neopentyl-1-oxa-4,8,11-triazacyclohexadec-13-ene-2,5,9,12-tetraone		cyclisation yield: 54%
(3S,10R,16S, E)-10-(3-chloro-4-methoxybenzyl)-16-((R,E)-4-(4-(hydroxymethyl)-phenyl)but-3-en-2-yl)-6,6-dimethyl-3-neopentyl-1-oxa-4,8,11-triazacyclohexadec-13-ene-2,5,9,12-tetraone		cyclisation yield: 70%
(3S,10R,16S, E)-16-((R,E)-4-(4-(azidomethyl)phenyl)but-3-en-2-yl)-10-(3-chloro-4-methoxybenzyl)-3-isobutyl-6,6,7-trimethyl-1-oxa-4,8,11-triazacyclohexadec-13-ene-2,5,9,12-tetraone [44]		cyclisation yield (run 1): 17%
(3S,10R,16S, E)-16-((R,E)-4-(4-(azidomethyl)phenyl)but-3-en-2-yl)-10-(3-chloro-4-methoxybenzyl)-3-isobutyl-6,6,7-trimethyl-1-oxa-4,8,11-triazacyclohexadec-13-ene-2,5,9,12-tetraone [45]		cyclisation yield (run 1): 19%
(3S,10R,16S, E)-16-((S)-1-((2R,3R)-3-(4-(azidomethyl)phenyl)oxiran-2-yl)ethyl)-10-(3-chloro-4-methoxybenzyl)-3-isobutyl-6,6-dimethyl-1-oxa-4,8,11-triazacyclohexadec-13-ene-2,5,9,12-tetraone		step yield [1]: 44%; step yield (late stage modification step, run 2): 57%
(3S,10R,16S,E)-10-(3-chloro-4-methoxybenzyl)-6-(hydroxymethyl)-16-((R)-1-((4-methoxybenzyl)oxy)propan-2-yl)-6-methyl-3-neopentyl-1-oxa-4,8,11-triazacyclohexadec-13-ene-2,5,9,12-tetraone [76 stereomer 1]		cyclisation yield (run 1): 56%
(3S,10R,16S,E)-10-(3-chloro-4-methoxybenzyl)-6-(hydroxymethyl)-16-((R)-1-((4-methoxybenzyl)oxy)propan-2-yl)-6-methyl-3-neopentyl-1-oxa-4,8,11-triazacyclohexadec-13-ene-2,5,9,12-tetraone [76 stereomer 2]		cyclisation yield (run 1): 37%
(3S,10R,16S,E)-10-(3-chloro-4-methoxybenzyl)-16-((R)-1-((4-methoxy-benzyl)oxy)propan-2-yl)-6-methyl-3-neopentyl-6-(((triethylsilyl)oxy)methyl)-1-oxa-4,8,11-triaza-cyclohexadec-13-ene-2,5,9,12-tetraone [77 stereomer 1]		step yield [1]: 39%
(3S,10R,16S,E)-10-(3-chloro-4-methoxybenzyl)-16-((R)-1-((4-methoxy-benzyl)oxy)propan-2-yl)-6-methyl-3-neopentyl-6-(((triethylsilyl)oxy)methyl)-1-oxa-4,8,11-triaza-cyclohexadec-13-ene-2,5,9,12-tetraone [77 stereomer 2]		step yield [1]: 30%
(3S,10R,16S,E)-10-(3-chloro-4-methoxybenzyl)-16-((S)-1-((2R,3R)-3-(4-(hydroxy-methyl)phenyl)oxiran-2-yl)ethyl)-6,6-dimethyl-3-neopentyl-1-oxa-4,8,11-triazacyclohexadec-13-ene-2,5,9,12-tetraone	31%	
(3S,10R,16S,E)-10-(3-chloro-4-methoxybenzyl)-16-((S)-1-((2R,3R)-3-(4-(hydroxymethyl)phenyl)oxiran-2-yl)ethyl)-6,6,7-trimethyl-3-neopentyl-1-oxa-4,8,11-triazacyclohexadec-13-ene-2,5,9,12-tetraone	45%	
(3S,10R,16S,E)-16-((R,E)-4-(4-(azidomethyl)phenyl)but-3-en-2-yl)-10-(3-chloro-4-methoxybenzyl)-3-isobutyl-6,6-dimethyl-1-oxa-4,8,11-triazacyclohexadec-13-ene-2,5,9,12-tetraone		cyclisation yield: 68%
(3S,10R,16S,E)-16-((S)-1-((2R,3R)-3-(4-(aminomethyl)phenyl)oxiran-2-yl)ethyl)-10-(3-chloro-4-methoxybenzyl)-3-isobutyl-6,6-dimethyl-1-oxa-4,8,11-triazacyclohexadec-13-ene-2,5,9,12-tetraone	51%	
(3S,10R,16S,E)-16-((S)-1-((2R,3R)-3-(4-(aminomethyl)phenyl)oxiran-2-yl)ethyl)-10-(3-chloro-4-methoxybenzyl)-6,6,7-trimethyl-3-neopentyl-1-oxa-4,8,11-triazacyclohexadec-13-ene-2,5,9,12-tetraone	68%	
(3S,10R,16S,E)-16-((S)-1-((2R,3R)-3-(4-(aminomethyl)phenyl)oxiran-2-yl)ethyl)-10-(3-chloro-4-methoxybenzyl)-6,6-dimethyl-3-neopentyl-1-oxa-4,8,11-triazacyclohexadec-13-ene-2,5,9,12-tetraone	84%	
(3S,10R,16S,E)-16-((S)-1-((2R,3R)-3-(4-(azidomethyl)phenyl)oxiran-2-yl)ethyl)-10-(3-chloro-4-methoxybenzyl)-6,6,7-trimethyl-3-neopentyl-1-oxa-4,8,11-triazacyclohexadec-13-ene-2,5,9,12-tetraone	94%	
(3S,10R,16S,E)-16-((S)-1-((2R,3R)-3-(4-(azidomethyl)phenyl)oxiran-2-yl)ethyl)-10-(3-chloro-4-methoxybenzyl)-6,6-dimethyl-3-neopentyl-1-oxa-4,8,11-triazacyclohexadec-13-ene-2,5,9,12-tetraone	40%	
(3S,10R,16S,E)-16-((S)-1-((2R,3R)-3-(4-(azidomethyl)phenyl)oxiran-2-yl)ethyl)-10-(3-chloro-4-methoxybenzyl)-6-methyl-3-neopentyl-6-(((triethylsilyl)oxy)methyl)-1-oxa-4,8,11-triazacyclohexadec-13-ene-2,5,9,12-tetraone	24%	
(6R,13S)-(1E,3R,4S,6E)-1-(4-(azidomethyl)phenyl)-8-(tert-butoxy)-3-methyl-8-oxoocta-1,6-dien-4-yl 6-(3-chloro-4-methoxybenzyl)-13-isobutyl-2,2,10,10-tetramethyl-4,7,11-trioxo-3-oxa-5,8,12-triazatetradecan-14-oate	50%	step yield (coupling step): 57%
(6R,13S)-(1E,3R,4S,6E)-8-(tert-butoxy)-1-(4-(hydroxymethyl)phenyl)-3-methyl-8-oxoocta-1,6-dien-4-yl 6-(3-chloro-4-methoxybenzyl)-2,2,9,10,10-pentamethyl-13-neopentyl-4,7,11-trioxo-3-oxa-5,8,12-triazatetradecan-14-oate		step yield (coupling step): 30%
(6R,13S)-(1E,3R,4S,6E)-8-(tert-butoxy)-1-(4-(hydroxymethyl)phenyl)-3-methyl-8-oxoocta-1,6-dien-4-yl 6-(3-chloro-4-methoxybenzyl)-2,2,10,10-tetramethyl-13-neopentyl-4,7,11-trioxo-3-oxa-5,8,12-triazatetradecan-14-oate		step yield (coupling step): 57%
(9S,12S)-1-(4-((2R,3R)-3-((S)-1-((3S,7S,10R,16S, E)-10-(3-chloro-4-methoxy-benzyl)- 6,6,7-trimethyl-3-neopentyl-2,5,9,12-tetraoxo-1-oxa-4,8,11-triazacyclohexadec-13-en-16-yl)ethyl)oxiran-2-yl)phenyl)-12-isopropyl-9-methyl-3,8,11,14-tetraoxo-2-oxa-4,7,10,13-tetraazaoctadecan-18-oic acid	56%	
(S)-2-((3S,7S,10R,16S, E)-10-(3-chloro-4-methoxybenzyl)-6,6,7-trimethyl-3-neopentyl-2,5,9,12-tetraoxo-1-oxa-4,8,11-triazacyclohexadec-13-en-16-yl)propanal	47%	
